Data source: PubChem BioAssay AID504784 (Drosophila RNAi Screening Center, 2011)

- Assay: 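Search for regulators of lipid droplet storage in oleate-fed fly cells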 (primary screen)
- System: Drosophila Kc167 embryonic cells
- Reagents: long dsRNA against Drosophila genes, about 250 ng dsRNA per well
- Duration: 4 days
- Challenge: cells fed 400 µM oleic acid bound to BSA
- Measured: 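Microscope images give a droplet-to-nucleus area ratio, taken as log and converted to a screen-wide B-score; higher values mean greater lipid storage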
- Reading the numbers: droplet/nuclear area B-score: higher = more stored lipid (overstorage)
In all, the deposit lists about 17,000 reagents; shown is an unselected part of those that have a named target and a result. 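Each column is one replicate's B-score; the combined score over replicates was not deposited, so single values may mislead.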 The numbers tell different reagents against one gene apart. A plus sign joins genes that one reagent is predicted to hit. Not all columns of the deposit are shown.

{"predicted target": "PlexA (Plexin A)", "dsRNA no.": 1, "droplet/nuclear area B-score, replicate 1": 1.89}
{"predicted target": "Dhfr (Dihydrofolate reductase)", "dsRNA no.": 1, "droplet/nuclear area B-score, replicate 1": -0.246}
{"predicted target": "Nepl13 (Neprilysin-like 13)", "dsRNA no.": 1, "droplet/nuclear area B-score, replicate 1": 0.483}
{"predicted target": "CG11768", "dsRNA no.": 1, "droplet/nuclear area B-score, replicate 1": 0.143}
{"predicted target": "CG11768", "dsRNA no.": 2, "droplet/nuclear area B-score, replicate 1": 0.344}
{"predicted target": "Zyx (Zyxin)", "dsRNA no.": 1, "droplet/nuclear area B-score, replicate 1": 0.967}
{"predicted target": "Cpr49Ah (Cuticular protein 49Ah)", "dsRNA no.": 1, "droplet/nuclear area B-score, replicate 1": 0.553}
{"predicted target": "CG13029", "dsRNA no.": 1, "droplet/nuclear area B-score, replicate 1": 0.637}
{"predicted target": "Teh1 (tipE homolog 1)", "dsRNA no.": 1, "droplet/nuclear area B-score, replicate 1": 0.726}
{"predicted target": "CG17751", "dsRNA no.": 1, "droplet/nuclear area B-score, replicate 1": -0.464}
{"predicted target": "CG17751", "dsRNA no.": 2, "droplet/nuclear area B-score, replicate 1": 1.47}
{"predicted target": "eIF3a (eukaryotic translation initiation factor 3 subunit a)", "dsRNA no.": 1, "droplet/nuclear area B-score, replicate 1": 6.57}
{"predicted target": "Rrp40 (Ribosomal RNA processing 40)", "dsRNA no.": 1, "droplet/nuclear area B-score, replicate 1": -2.42}
{"predicted target": "Ak3 (Adenylate kinase 3)", "dsRNA no.": 1, "droplet/nuclear area B-score, replicate 1": -0.255}
{"predicted target": "CG3014", "dsRNA no.": 1, "droplet/nuclear area B-score, replicate 1": 0.388}
{"predicted target": "CR32011 + CR32010 + PlexB + 1 more", "dsRNA no.": 1, "droplet/nuclear area B-score, replicate 1": 0.538}
{"predicted target": "CG13506", "dsRNA no.": 1, "droplet/nuclear area B-score, replicate 1": -0.266}
{"predicted target": "Top2 (Topoisomerase 2)", "dsRNA no.": 1, "droplet/nuclear area B-score, replicate 1": 0.219}
{"predicted target": "CG10904", "dsRNA no.": 1, "droplet/nuclear area B-score, replicate 1": -0.528}

Reformatted: entries from further up
CG13029 | droplet/nuclear area B-score, replicate 1: 0.637
Teh1 (tipE homolog 1) | droplet/nuclear area B-score, replicate 1: 0.726
CG17751 #1 | droplet/nuclear area B-score, replicate 1: -0.464

The listing continues:
{"predicted target": "CG13716", "dsRNA no.": 1, "droplet/nuclear area B-score, replicate 1": 0.721}
{"predicted target": "CG13716", "dsRNA no.": 2, "droplet/nuclear area B-score, replicate 1": 3.48}
{"predicted target": "Pdfr (Pigment-dispersing factor receptor)", "dsRNA no.": 1, "droplet/nuclear area B-score, replicate 1": 2.04}
{"predicted target": "CG5276", "dsRNA no.": 1, "droplet/nuclear area B-score, replicate 1": -0.844}
{"predicted target": "muc (midline uncoordinated)", "dsRNA no.": 1, "droplet/nuclear area B-score, replicate 1": 0.508}
{"predicted target": "muc (midline uncoordinated)", "dsRNA no.": 2, "droplet/nuclear area B-score, replicate 1": -1.35}
{"predicted target": "pins (partner of inscuteable)", "dsRNA no.": 1, "droplet/nuclear area B-score, replicate 1": 1.99}
{"predicted target": "Usp2 (Ubiquitin specific protease 2)", "dsRNA no.": 1, "droplet/nuclear area B-score, replicate 1": 0.294}
{"predicted target": "Usp2 (Ubiquitin specific protease 2)", "dsRNA no.": 2, "droplet/nuclear area B-score, replicate 1": -0.737}
{"predicted target": "Usp2 (Ubiquitin specific protease 2)", "dsRNA no.": 3, "droplet/nuclear area B-score, replicate 1": -0.857}
{"predicted target": "p130CAS + Dic61B", "dsRNA no.": 1, "droplet/nuclear area B-score, replicate 1": -1.12}
{"predicted target": "CG7509", "dsRNA no.": 1, "droplet/nuclear area B-score, replicate 1": -2.02}
{"predicted target": "ppk20 (pickpocket 20)", "dsRNA no.": 1, "droplet/nuclear area B-score, replicate 1": -0.467}
{"predicted target": "CG5885", "dsRNA no.": 1, "droplet/nuclear area B-score, replicate 1": -0.574}
{"predicted target": "Pebp1 (Phosphatidylethanolamine-binding protein 1)", "dsRNA no.": 1, "droplet/nuclear area B-score, replicate 1": 0.618}
{"predicted target": "CG13314", "dsRNA no.": 1, "droplet/nuclear area B-score, replicate 1": -0.168}
{"predicted target": "Acsx4 (Acyl-CoA synthetase X4)", "dsRNA no.": 1, "droplet/nuclear area B-score, replicate 1": 3.41}
{"predicted target": "emp (epithelial membrane protein)", "dsRNA no.": 1, "droplet/nuclear area B-score, replicate 1": 2.12}
{"predicted target": "emp (epithelial membrane protein)", "dsRNA no.": 2, "droplet/nuclear area B-score, replicate 1": 0.71}
{"predicted target": "kairos", "dsRNA no.": 1, "droplet/nuclear area B-score, replicate 1": 0.169}
{"predicted target": "kairos", "dsRNA no.": 2, "droplet/nuclear area B-score, replicate 1": 1.8}
{"predicted target": "RhoGEF3 (Rho guanine nucleotide exchange factor 3)", "dsRNA no.": 1, "droplet/nuclear area B-score, replicate 1": 1.2}
{"predicted target": "RhoGEF3 (Rho guanine nucleotide exchange factor 3)", "dsRNA no.": 2, "droplet/nuclear area B-score, replicate 1": -0.868}
{"predicted target": "CG3703", "dsRNA no.": 1, "droplet/nuclear area B-score, replicate 1": 0.0483}
{"predicted target": "CG3703", "dsRNA no.": 2, "droplet/nuclear area B-score, replicate 1": 0.0134}
{"predicted target": "CG3703", "dsRNA no.": 3, "droplet/nuclear area B-score, replicate 1": -0.997}
{"predicted target": "CG13059", "dsRNA no.": 1, "droplet/nuclear area B-score, replicate 1": 0.519}
{"predicted target": "CG31546", "dsRNA no.": 1, "droplet/nuclear area B-score, replicate 1": 0.911}
{"predicted target": "CG6484", "dsRNA no.": 1, "droplet/nuclear area B-score, replicate 1": -3.86}
{"predicted target": "CG7739", "dsRNA no.": 1, "droplet/nuclear area B-score, replicate 1": 0.189}
{"predicted target": "Elal (Elastin-like)", "dsRNA no.": 1, "droplet/nuclear area B-score, replicate 1": 0.499}
{"predicted target": "gpp (grappa)", "dsRNA no.": 1, "droplet/nuclear area B-score, replicate 1": -1.37}
{"predicted target": "gpp (grappa)", "dsRNA no.": 2, "droplet/nuclear area B-score, replicate 1": 1.51}
